Results reported in paper PMC3983030, “Ras GTPase-Like Protein MglA, a Controller of Bacterial Social-Motility in Myxobacteria, Has Evolved to Control Bacterial Predation by Bdellovibrio” (PLoS Genetics, 2014).
Results are given in words; binding and its absence hold for the method and conditions named. Binding seen in cells or lysates may run through a third protein. Here binding means that the protein was enriched with, or labelled near, the bait; the list need not be complete. Tags and fused reporters may be left off the sequences shown.

Biological target: T1, MglABd with a C-terminal His8 tag (Bd3734) (Bdellovibrio bacteriovorus HD100) (UniProt Q6MH29)
T1 sequence: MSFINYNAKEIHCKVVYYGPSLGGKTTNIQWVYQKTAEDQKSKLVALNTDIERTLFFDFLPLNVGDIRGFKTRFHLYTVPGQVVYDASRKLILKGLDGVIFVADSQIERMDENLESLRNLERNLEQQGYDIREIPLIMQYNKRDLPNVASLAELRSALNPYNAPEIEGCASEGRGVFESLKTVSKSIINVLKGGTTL
Assay: affinity purification with mass spectrometry; whole cell lysate of the HI MglABd-His8 strain; His-tagged bait bound to TALON-NX cobalt-charged resin; differential SDS-PAGE bands excised and analysed by LC-MS/MS; control HID13 without the His-tag

B1: Bd2492, tetratricopeptide repeat (TPR) domain protein (TPRBd) (protein, UniProt Q6MKB3 1-353)
chain: MSTYIELEIQNLLNQGSDQNIDLAEVATRLVSSIESSPDHFTLDNITALSRFLIQSGNELVLVEFVLRHLENESFPIPWPYFLEALSAFSEELDEKSVRALIDGIEEDGAQEEASRSLALRQTIQSLGEWRSNRKYKIHKDYLNNKRLLLDQLITLRTQQLYEQEKSLLARLQKLYPGDSDIRREVNEHKQRYALEILSRRTPRSRGVKTEDFSPKDPETEQALQVLMQSMHEHAETDPSMAFDFAIAAYMLESYEDALSLLSFSDESETLIWFRLEVLLKCRRFVELLTDLAKVEVVFAHEPETFFATAYLRAQALWGLGQKHTAIEVMEGLLAARPHYRAASALLSIWGGQ
  binding: binds
